Assay [1] has as its target T1, GST-tagged full-length Elf1 (S. cerevisiae) (UniProt P36053).
T1 sequence: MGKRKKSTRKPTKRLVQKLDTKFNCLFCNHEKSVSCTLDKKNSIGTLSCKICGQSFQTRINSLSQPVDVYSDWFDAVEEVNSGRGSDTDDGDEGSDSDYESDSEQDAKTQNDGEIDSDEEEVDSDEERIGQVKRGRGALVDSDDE
The experiment in a line: pull-down; GST beads with GST-tagged Elf1 proteins mixed with purified PH domain of p62; 23 °C, 1 h; washed twice in 20 mM HEPES pH 7.4, 5% glycerol; SDS-PAGE; both purified.

The target of assay [2] is T2, GST-Elf1 N-terminal half (residues 1–85) (S. cerevisiae) (UniProt P36053).
T2 sequence: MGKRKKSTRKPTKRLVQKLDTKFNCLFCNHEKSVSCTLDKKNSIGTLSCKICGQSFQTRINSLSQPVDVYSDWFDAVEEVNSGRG
The description is as above.

Results are given in words; binding and its absence hold for the method and conditions named. Where a sequence is shown, tags or fusion partners need not be part of it.

B1: PH domain (1–115) of TFIIH p62 subunit (domain or fragment, UniProt P32776 1-115)
chain: MSHSGAAIFEKVSGIIAINEDVSPAELTWRSTDGDKVHTVVLSTIDKLQATPASSEKMMLRLIGKVDESKKRKDNEGNEVVPKPQRHMFSFNNRTVMDNIKMTLQQIISRYKDAD
On to B1, for which the binding result in assay [1] and in assay [2] was “no binding” in each case.
